The values below are quoted from earlier work in patent publication US20250268834A1, “IONIC LIQUID SALTS OF ACTIVE PHARMACEUTICAL INGREDIENTS” (GlaxoSmithKline Consumer Healthcare Holdings (US) LLC, priority 2021, published 2025).

Where two headings read alike, the source gives them in different places.

For the molecule `CC(=O)Nc1ccc(O)cc1` [APAP, acetaminophen], the solubility entry (37° C. in water, across pH range ~1-9) is “approximately 20 mg/ml” and the solubility entry (80% PEG 400/water mixture) is “up to 260 mg/ml”.
